{"source": "PubChem BioAssay AID1508597 – Cure First – 2020", "screen": "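Genes whose silencing sensitises or protects ovarian cancer cells against rucaparib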 (primary screen)", "cells": "human ovarian carcinoma lines grown from tumours: OCI-P5x (papillary serous) and OCI-C5x (clear cell)", "reagent": "siRNA pool against human genes, 1.25 pmol siRNA per well", "time to read-out": "72 h or 96 h, depending on the cell culture", "challenge": "rucaparib 20 µM (about IC30) or vehicle, present until read-out", "rucaparib or vehicle": "Vehicle", "cell line": "OCI-P5x (serous)", "detection": "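Luminescent ATP-based viability assay read 72 or 96 h after transfection, depending on culture, given as normalised percent viability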", "scale": "viability, normalised: higher = more viable cells remaining", "rule for the call": "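a well counts as a hit if its normalised viability is under 80 percent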", "meaning of the calls": "active = viability under 80%; inactive = viability 80% or more", "note": "Shown is an unselected part of the about 2,100 reagents, in one setting of the screen. 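Calls flag viability under 80% in either arm, not effects specific to rucaparib; the reference for percent is not stated.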 Entries without a mark were called inactive. The record does not give: the 100% reference."}
{"gene": "PTAR1", "technical replicate": "1", "viability, normalised (%)": "66.3 (active)"}
{"gene": "PTAR1", "technical replicate": "2", "viability, normalised (%)": "72.3 (active)"}
{"gene": "PTAR1", "technical replicate": "3", "viability, normalised (%)": 94.7}
{"gene": "DCLK3", "technical replicate": "1", "viability, normalised (%)": 94.8}
{"gene": "DCLK3", "technical replicate": "2", "viability, normalised (%)": 90.7}
{"gene": "DCLK3", "technical replicate": "3", "viability, normalised (%)": 87.2}
{"gene": "MED1", "technical replicate": "1", "viability, normalised (%)": "63.3 (active)"}
{"gene": "MED1", "technical replicate": "2", "viability, normalised (%)": "69.6 (active)"}
{"gene": "MED1", "technical replicate": "3", "viability, normalised (%)": "76.8 (active)"}
{"gene": "HMGN2", "technical replicate": "1", "viability, normalised (%)": "63.4 (active)"}
{"gene": "HMGN2", "technical replicate": "2", "viability, normalised (%)": "61.2 (active)"}
{"gene": "HMGN2", "technical replicate": "3", "viability, normalised (%)": "78.1 (active)"}

Entries listed so far whose target name starts with M or m:
{"gene": "MED1", "technical replicate": "1", "viability, normalised (%)": "63.3 (active)"}
{"gene": "MED1", "technical replicate": "2", "viability, normalised (%)": "69.6 (active)"}
{"gene": "MED1", "technical replicate": "3", "viability, normalised (%)": "76.8 (active)"}
